# Measured data: PubChem BioAssay AID1259308 (NCATS, 2017)
# Aim: 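Candidate targets for better recombinant protein yield in mammalian cells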 (primary screen)
# Cells: human HEK293 embryonic kidney cells stably expressing firefly luciferase (HEK-CMV-Luc2-Hygro)
# Reagents: single siRNA against human genes, 0.8 pmol siRNA per well
# Timing: 72 h
# Detection: 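Reporter luminescence and viable-cell signal on separate replicate plates, given as percent of non-targeting control and median/MAD z-scores, plus per-cell luciferase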
# Reading the numbers: total luciferase, z-score and total luciferase, % of control: higher = more reporter protein produced; luciferase per cell, z-score: higher = more reporter output per viable cell; viable cells, % of control: higher = more viable cells
# Call rule: 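An siRNA counts as active if its total luciferase robust z-score exceeds 3; genes with two or more such siRNAs out of three were retested with fresh siRNAs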
# Meaning of the calls: active = raised luciferase; inactive = no rise
# This is a random part of about 59,000 reagents. About 1,510 of them (2.6%) count as active. 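Calls use total luciferase alone and ignore viability, so some active siRNAs may act by altering cell number.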 Reagents against one gene are numbered here.
gene,siRNA no.,"total luciferase, z-score","total luciferase, % of control","luciferase per cell, z-score","viable cells, % of control",Call
DLGAP3 (DLG associated protein 3),1,0.234,86.5,0.44,86.1,inactive
DLGAP3 (DLG associated protein 3),2,-0.468,72.6,-0.763,99.1,inactive
DLGAP3 (DLG associated protein 3),3,0.513,92.1,0.9,81.2,inactive
LGALS2 (galectin 2),1,-0.174,78.4,-0.56,102,inactive
LGALS2 (galectin 2),2,-0.7,68,-0.731,92,inactive
LGALS2 (galectin 2),3,-2.77,26.8,-0.459,33.8,inactive
MAGEA4 (MAGE family member A4),1,1.73,116,0.575,112,inactive
MAGEA4 (MAGE family member A4),2,-2.39,34.4,-3.53,97.3,inactive
MAGEA4 (MAGE family member A4),3,0.516,92.1,0.803,83.3,inactive
TCN2 (transcobalamin 2),1,0.974,101,0.493,99.4,inactive
TCN2 (transcobalamin 2),2,-0.928,63.4,2.01,41.8,inactive
TCN2 (transcobalamin 2),3,-1.28,56.5,-2.21,113,inactive
MLANA (melan-A),1,0.998,102,1.55,75.5,inactive
MLANA (melan-A),2,-0.661,68.7,0.655,64.6,inactive
MLANA (melan-A),3,1.03,102,1.42,78.7,inactive
APOOL (apolipoprotein O like),1,0.975,101,1.14,83.8,inactive
APOOL (apolipoprotein O like),2,-0.177,78.4,-0.468,99.1,inactive
APOOL (apolipoprotein O like),3,-0.662,68.7,-0.418,85.7,inactive
RIC8A (RIC8 guanine nucleotide exchange factor A),1,-0.0691,80.5,0.163,86.2,inactive
RIC8A (RIC8 guanine nucleotide exchange factor A),2,-0.655,68.9,-0.754,93.9,inactive
RIC8A (RIC8 guanine nucleotide exchange factor A),3,2.22,126,2.1,81,inactive
CCDC141 (coiled-coil domain containing 141),1,0.18,85.5,0.425,85.4,inactive
CCDC141 (coiled-coil domain containing 141),2,0.853,98.8,1.17,81.3,inactive
CCDC141 (coiled-coil domain containing 141),3,-0.446,73,-0.518,93.5,inactive
"DMWD (DM1 locus, WD repeat containing)",1,-1.57,50.7,-0.909,72,inactive
"DMWD (DM1 locus, WD repeat containing)",2,-0.0564,80.8,-0.000595,90.3,inactive
"DMWD (DM1 locus, WD repeat containing)",3,0.431,90.5,0.0532,99.7,inactive
SLCO1C1,1,-2.33,35.6,-3.33,95.6,inactive
SLCO1C1,2,-0.361,74.7,-0.955,107,inactive
SLCO1C1,3,1.46,111,0.764,101,inactive
MT1E (metallothionein 1E),1,-1.09,60.3,-0.0513,68.3,inactive
MT1E (metallothionein 1E),2,-2.53,31.5,-2.77,73,inactive
MT1E (metallothionein 1E),3,-0.809,65.8,-1.05,96.9,inactive
LINC01465 (long independently transcribed non-coding RNA 1465),1,-0.635,69.3,-1.27,108,inactive
LINC01465 (long independently transcribed non-coding RNA 1465),2,-2.46,32.9,-2.78,76.4,inactive
LINC01465 (long independently transcribed non-coding RNA 1465),3,-0.689,68.2,-0.758,93,inactive
NEMF (nuclear export mediator factor),1,2.5,132,3.11,64.9,inactive
NEMF (nuclear export mediator factor),2,-0.831,65.4,-0.444,82.1,inactive
NEMF (nuclear export mediator factor),3,-1.33,55.4,-0.951,79.6,inactive
ATP1A2 (ATPase Na+/K+ transporting subunit alpha 2),1,0.0569,83,-0.262,99.4,inactive
ATP1A2 (ATPase Na+/K+ transporting subunit alpha 2),2,0.359,89,-0.188,105,inactive
ATP1A2 (ATPase Na+/K+ transporting subunit alpha 2),3,-0.73,67.4,-1.01,98.2,inactive
CSF3 (colony stimulating factor 3),1,-0.398,74,-0.0426,83.6,inactive
CSF3 (colony stimulating factor 3),2,-0.64,69.2,1.02,59.1,inactive
CSF3 (colony stimulating factor 3),3,-0.152,78.9,0.0498,87,inactive
SPMIP11 (sperm microtubule inner protein 11),1,1.67,115,1.69,82.5,inactive
SPMIP11 (sperm microtubule inner protein 11),2,-0.747,67,0.856,59.8,inactive
SPMIP11 (sperm microtubule inner protein 11),3,1.26,107,1.36,83.6,inactive
GALNT17 (polypeptide N-acetylgalactosaminyltransferase 17),1,-0.383,74.3,-0.0625,84.4,inactive
GALNT17 (polypeptide N-acetylgalactosaminyltransferase 17),2,-1.59,50.3,-1.61,85.9,inactive
GALNT17 (polypeptide N-acetylgalactosaminyltransferase 17),3,0.0568,83,-0.441,104,inactive
EMILIN3 (elastin microfibril interfacer 3),1,1.76,117,1.01,100,inactive
EMILIN3 (elastin microfibril interfacer 3),2,-0.378,74.4,2.48,43.2,inactive
EMILIN3 (elastin microfibril interfacer 3),3,0.404,89.9,0.17,96.1,inactive
OR2H2 (olfactory receptor family 2 subfamily H member 2),1,0.415,90.1,0.0596,99.2,inactive
OR2H2 (olfactory receptor family 2 subfamily H member 2),2,-1.6,50,0.199,53,inactive
OR2H2 (olfactory receptor family 2 subfamily H member 2),3,0.784,97.5,0.345,99.5,inactive

Ordered by “viable cells, % of control” (highest first): 6 of the entries above
gene,siRNA no.,"total luciferase, z-score","total luciferase, % of control","luciferase per cell, z-score","viable cells, % of control",Call
MAGEA4 (MAGE family member A4),1,1.73,116,0.575,112,inactive
TCN2 (transcobalamin 2),1,0.974,101,0.493,99.4,inactive
MAGEA4 (MAGE family member A4),2,-2.39,34.4,-3.53,97.3,inactive
LGALS2 (galectin 2),2,-0.7,68,-0.731,92,inactive
MAGEA4 (MAGE family member A4),3,0.516,92.1,0.803,83.3,inactive
LGALS2 (galectin 2),3,-2.77,26.8,-0.459,33.8,inactive
